Measurements: US5192676
The exact form of at least one protein or probe is not confirmed.

System: AscI restriction endonuclease (Arthrobacter sp. NEB 688 (ATCC 55134))
Experiment: enzyme reaction in vitro
Conditions: 37 C, purified native protein

“AGGCGCGCCT (double strand) [AscI 10-mer self-complementary oligonucleotide]” was tested, and the “activity on this sequence” value (cleaves GG/CGCGCC giving labeled d(AGG), 70 mM Tris-HCl pH 7.6, 10 mM MgCl2, 5 mM DTT, 2 h, label: 5'-32P) was “active”.
For AGGCGCGCCT (double strand), the “activity on this sequence” value (cleavage between second and third bases, four-base 5' extension, 30 min, label: 35S dATP) was “active”.
